## Percent effect of library compounds

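Whole-parasite assay of Trypanosoma brucei over 72 hours; the read-out is not stated. Compounds at 30 µM. Direction is inferred from retests: higher values go with stronger inhibition. Values scatter widely below zero; nearly all retest evidence comes from the higher of the two concentrations used. Of about 64,000 compounds tested this way, about 940 (1.5%) reached 50% or more in at least one test.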

Values are the deposited “Percent Effect”, in %.
The controls that fix the scale are not given in the record; negative values are as filed.
This is an unselected part of the compounds tested.

| # | SMILES | effect |
|---|---|---|
| 1 | `COc1nn(C)c2c1CCCN(S(=O)(=O)c1ccccc1F)C2` | -193.9 |
| 2 | `CN(C)CCN(C)C(=O)c1ccccc1-n1cc(CN(C)C)cn1` | -22.96 |
| 3 | `O=C(CCn1cccn1)N1CCC(c2nnc(-c3ccsc3)o2)CC1` | -10.49 |
| 4 | `CC(C)C(=O)N(C)Cc1nc(N2CCCC2)ncc1-c1ccncc1.Cl` | 26.91 |
| 5 | `CC(C)Oc1ncccc1CNC(=O)N1CCC1c1ccccc1` (centres unmarked) | 0.5929 |
| 6 | `COCCc1noc(CN(C)c2cc(C)ncn2)n1` | -26.23 |
| 7 | `[H][C@@]12CNCC[C@]1(O)CCN(c1nccc3ccccc13)C2` | -24.96 |
| 8 | `CNC(=O)N1CCc2nc(C(=O)NCc3cccc(OC)c3)sc2CC1` | -261.6 |
| 9 | `Cc1cccc(CS(=O)(=O)Cc2ccn(C)c(=O)c2)c1` | -23.59 |
| 10 | `CSCCC(NC(=O)c1ccco1)C(=O)N(C)Cc1ccsc1` (centres unmarked) | -15.39 |
| 11 | `O=c1c(S(=O)(=O)N2CCCCC2)cccn1Cc1cccnc1` | -3.05 |
| 12 | `CCn1cnnc1CNC(=O)N1CCN(c2ccccc2Cl)CC1` | -26.81 |
| 13 | `O=C(CCc1cccnc1)N1CCC(c2cnccn2)CC1` | -9.195 |
| 14 | `Cc1ncoc1C(=O)N1CCCC(C(=O)c2cccc(OC(C)C)c2)C1` (centres unmarked) | -1.174 |
| 15 | `CC(C)c1nccn1C1CCCN(C(=O)C2=NN(C)C(=O)CC2)C1` (centres unmarked) | -21.59 |
| 16 | `COCCN1CCN(Cc2ccncc2)c2ncccc2C1.O=C(O)C(F)(F)F.O=C(O)C(F)(F)F.O=C(O)C(F)(F)F` | -22.72 |
| 17 | `O=C(C1CCCC1)N1CCCC1c1nnc2n1CCCCC2` (centres unmarked) | -25.21 |
| 18 | `CC(C)CC(N)C1=N/C(=C2\N=CN=N2)NO1` (centres unmarked) | -37.75 |
| 19 | `Cc1cccc(C(=O)NCc2cccnc2N(C)C)n1` | 3.894 |
| 20 | `CN(C)[C@@H]1CCN(C(=O)Cc2ccc(F)cc2)[C@H]1Cc1cnn(C)c1.O=C(O)C(F)(F)F` | -10.39 |
| 21 | `c1cnc(N2CCN(Cn3nccc3-c3cccnc3)CC2)nc1` | 9.123 |
| 22 | `CCN(c1ccccc1C(=O)O)S(=O)(=O)c1cccc2cccnc12` | -36.78 |
| 23 | `O=C(N1CCOCC1)N1CCN(c2ccncc2Cl)CC1` | -4.67 |
| 24 | `CS(=O)(=O)c1nnc(NC(=O)CCc2ccc(Cl)s2)[nH]1` | 11.44 |
| 25 | `[H][C@]12CC[C@]([H])(CN(Cc3cccc(C(=O)Nc4ccnn4C)c3)C1)N2` | -22.81 |
| 26 | `O=C(c1[nH]nc(C2CC2)c1Cl)N1CCN(S(=O)(=O)c2ccccc2)CC1` | -54.12 |
| 27 | `O=C(Cn1cncn1)NCC1(O)CCCc2ccccc21` (centres unmarked) | -55.28 |
| 28 | `CC(C)c1nnc2sc(CC3CCS(=O)(=O)C3)nn12` (centres unmarked) | -4.017 |
| 29 | `c1ccc(Cc2noc(CNC3CCc4ncnn4C3)n2)cc1` (centres unmarked) | 44.33 |
| 30 | `CNC(=O)c1cccnc1N1CCN(C/C=C/c2ccccc2)CC1` | -37.01 |
| 31 | `[H][C@@]12OCCN(C(=O)c3ccc(C)nc3)[C@@]1([H])CC[C@@H]2OC` | -79.27 |
| 32 | `CCCn1nc(C)c(C(=O)N[C@@H]2CC[C@@H](N3CCCC3)[C@@H]2O)c1C` | -11.9 |
| 33 | `CC(Cn1cccn1)NC(=O)N1CCCN(Cc2cccs2)CC1` (centres unmarked) | -17.11 |
| 34 | `COC(=O)C1CCN(C(=O)c2ccc(NS(C)(=O)=O)c(C)c2)CC1` | -8.881 |
| 35 | `C1CCC(CSc2nnnn2C2CC2)OC1` (centres unmarked) | -18.86 |
| 36 | `COc1ccc2c(c1)OCC(Cc1ccc(N(C)C)nc1)C2` (centres unmarked) | -17.19 |
| 37 | `CC(=O)c1cccc(NC(=O)NCCc2nnc[nH]2)c1` | 2.558 |
| 38 | `Cc1ncc(CN(C)CC(O)c2ccc(Br)cc2)s1` (centres unmarked) | -2.636 |
| 39 | `CC(=O)N1CCOC(Cc2cccc(C(F)(F)F)c2)C1` (centres unmarked) | -43.69 |
| 40 | `CNC(=O)CN(C)C(=O)c1cc2ccccc2cc1OC` | -10.74 |
| 41 | `COc1nccc(N2CC[C@H](N3CCOCC3)[C@H](CCCO)C2)c1C#N` | -33.21 |
| 42 | `CC(Cn1cccn1)NC(=O)CCc1nc(C(C)(C)C)no1` (centres unmarked) | -43.85 |
| 43 | `CN(C)S(=O)(=O)N1CCC(Oc2ccccn2)CC1` | -8.078 |
| 44 | `CCCc1cncnc1N1CCC2(CCC(=O)N(CCOC)C2)CC1` | -42.94 |
| 45 | `CC(=O)N1CCC(Cc2nccnc2-c2ccnn2C)CC1` | -7.908 |
| 46 | `Cn1nnc2c(N3CC(C(=O)NCc4ccccc4F)C3)ncnc21` | -22.7 |
| 47 | `O=C(NCCCN1CCOCC1)c1nc(-c2ccc3cc[nH]c3c2)no1` | -29.63 |
| 48 | `O=C(NCCn1nc(-n2cncn2)ccc1=O)c1ccccc1Br` | -11.96 |
| 49 | `COCCOc1ccc(CNc2nc3ccccc3o2)cn1` | -17.74 |
| 50 | `Cc1ccc(-c2noc(C3CCN3C(=O)c3c(C)noc3C)n2)s1` (centres unmarked) | 9.313 |
| 51 | `CN(C)CCN1CCCC12CCN(C(=O)c1ccoc1)CC2.O=C(O)C(F)(F)F.O=C(O)C(F)(F)F` | -51.1 |
| 52 | `Cc1cc(CNC(=O)N2CCN(c3ccc(Cl)cn3)CC2)c(C)o1` | 17.6 |

Repeated from the top, 6 entries:

SMILES	effect
COc1nn(C)c2c1CCCN(S(=O)(=O)c1ccccc1F)C2	-193.9
CN(C)CCN(C)C(=O)c1ccccc1-n1cc(CN(C)C)cn1	-22.96
O=C(CCn1cccn1)N1CCC(c2nnc(-c3ccsc3)o2)CC1	-10.49
CC(C)C(=O)N(C)Cc1nc(N2CCCC2)ncc1-c1ccncc1.Cl	26.91
CC(C)Oc1ncccc1CNC(=O)N1CCC1c1ccccc1 (centres unmarked)	0.5929
COCCc1noc(CN(C)c2cc(C)ncn2)n1	-26.23

Measurements from “University of Dundee, Small-Polar-MMV Screening Library” (2021), ChEMBL document CHEMBL3988442.